Binding data for one molecule are collected here from PMC4136701, “A Conserved Cysteine Residue of Bacillus subtilis SpoIIIJ Is Important for Endospore Development” (PLoS ONE, 2014).

No constants are given. Whether binding was seen depends on the method and setting. Sequences can lack the tags named with a protein.

The test has as its target truncated SpoIIIJ-His6 starting at L122 (fragment "c", lacking TM1) (Bacillus subtilis) (UniProt Q01625). The test is described as follows: SDS-PAGE with or without reducing agent; purified protein in loading buffer with (100 mM) or without DTT; Coomassie staining or immunoblot with anti-His6; bands a and b cut out and run again; both purified. (In general: Immunoblotting shows a protein as a band on a membrane.)

B1: truncated SpoIIIJ-His6 starting at L122 (fragment "c", lacking TM1) (domain or fragment, Bacillus subtilis, UniProt Q01625 122-261, looked up)
chain: LFQKHGVNPLAGCFPILIQMPILIGFYHAIMRTQAISEHSFLWFDLGEKDPYYILPIVAGVATFVQQKLMMAGNAQQNPQMAMMLWIMPIMIIVFAINFPAALSLYWVVGNLFMIAQTFLIKGPDIKKNPEPQKAGGKKK
notes: SpoIIIJ, Bacillus subtilis; about 16 kDa product of cleavage at L122 in the cytoplasmic loop between TM1 and TM2: the rest of that loop to the end of the protein (includes TM2 with Cys134); Two species of about 15 kDa both start at L122; The cause of their different mobility is not known; also called band c; truncated SpoIIIJ monomer (lacking TM1); source: E. coli C43(DE3), proteolytic product …
On to B1, for which the binding result is “no binding”.
